This is one part of the list.
B1: il2ra_site1_2b5i_normal_mot_HHH_b1_08075_000000261_0001_1_20_H_._HHH_b1_04452_0001_0000200011_0000001_1_af2pred_dldesign_0_af2pred (protein)
chain: SSSLREILEEAERLHKRVYELEEKKNKEEIAKIKERLKELYEKTKEPALKEALEDAEEALKSSSS
B2: il2ra_site2_2erj_sap_24_mot_HHH_b1_03026_000000045_0001_39_53_H_._HHH_b1_04773_0001_0000400017_0000001_0_0001_af2pred_0001_1_af2pred_swapped (protein)
chain: SSSSDELEQVVEELVEELGLDEEAKKQLEAAVRNLKEAGFSEEMAELYLEIAAENLARLLSSSSS
B3: il2ra_site1_3nfp_sap_25_mot_HHH_b1_03725_af2_000000070_0001_39_57_H_._HHH_b1_00503_af2_0001_0000100001_0000001_0_0001 (protein)
chain: SSSSDELAREIDRLLKRLAKAIREGDEELIEKLEERIEELIEEANDELAQRLLEQLRERLSSSSS
B4: il2ra_site2_2erj_sap_27_mot_HHH_b1_06157_000000296_0001_22_38_H_._HHH_b2_02108_0001_0000700018_0000001_0_0001 (protein)
chain: SSSSDERLKELYELAVKITHALARNDEELLKELIKEAKELAEELDSPTAREIVESLERLLKSSSS
B5: il2ra_site2_3nfp_sap_12_mot_HHH_b1_06586_000000201_0001_1_18_H_._HHH_b2_06897_af2_0001_0000300008_0000001_0_0001 (protein)
chain: SSSSSSDREERAQELLEEAKHVDEEEARFLVMAAANLAWELGDEELAKEIRELIQELWSSSSSSS
B6: il2ra_site1_2b5i_normal_mot_HHH_b1_02271_000000068_0001_1_16_H_._HHH_b2_00382_0001_0000200012_0000001_0_af2pred_dldesign_0_af2pred (protein)
chain: SSSSSDPLAEARRVVEEARELAKTDRRAALELLNEAYKYFGEKDDEEAMDLLEEAAREILSSSSS
B7: il2ra_site2_3nfp_sap_16_mot_HHH_b2_08046_000000127_0001_20_37_H_._8323a3979fe47b92d96c7c6278d960ae_0001_0001_0000100012_0000001_0_0001_af2pred_0001_af2pred_swap … (protein)
chain: SSSSDEAERLVERAEELLEEGDLEEAERILKEARKQALEKGDHELFARILELLELLERLGSSSSS
B8: il2ra_site2_3nfp_normal_mot_HHH_b1_00660_af2_000000090_0001_40_57_H_._HHH_b1_02871_0001_0000400018_0000001_0 (protein)
chain: SSSSSDEEELEELKERLEELERRGDEEKIEKVAQRLFSLAAQLNDFEAFALAQEVRARLLSSSSS
B9: il2ra_site1_3nfp_sap_16_mot_HHH_b2_05538_af2_000000197_0001_20_36_H_._a018c15928f351c43b00908d5a7ba3e0_0001_0001_0000100019_0000001_0_0001 (protein)
chain: SWKALERLLEQALRVPPEEAEEILREVREEAGGDPKRILELLLKLAEELGNEAARKHLELTLRQW
B10: il2ra_site1_3nfp_sap_16_mot_HHH_b1_05070_af2_000000282_0001_43_57_H_._HHH_b2_06865_0001_0000600040_0000001_0_0001 (protein)
chain: SAEEAVEWLVRQAVERNNPELLRRILRALEWFHGDPEEAEEALHELIEKVLGDPEEAERLVREAK
B11: il2ra_site1_1z92_sap_13_mot_15580975d4dd9e5733d814788d639b64_0001_000000137_0001_1_14_H_._HHH_b2_03613_af2_0001_0000600030_0000001_0_0001_af2pred_0001_af2pred_1 (protein)
chain: NKFEEIIKKNLRSIDDPVAEELLRLLEELERGELPPEELEELLERILKETGNPLAKLVIDYLRRR
B12: il2ra_site2_3nfp_sap_13_mot_HHH_b2_05843_000000230_0001_1_19_H_._HHH_b1_07298_0001_0000200016_0000001_0_0001 (protein)
chain: SSSSTAEQAAETLLETLEEEGDEESFEELQELLEKLEETGDPRDALELYELILEIFERLQSSSSS
B13: il2ra_site1_2b5i_sap_10_mot_HHH_b2_04910_000000118_0001_1_19_H_._HHH_b1_07968_af2_0001_0000100002_0000001_0_0001_af2pred_dldesign_0_af2pred (protein)
chain: SSSSSSAKRAEARALIERAKKEKDRRKALLLLNEAYKIAGELDDEELAAEAEELYRQLLSSSSSS
B14: il2ra_site1_1z92_normal_mot_HHH_b1_04329_000000069_0001_1_19_H_._HHH_b2_03912_0001_0000100007_0000001_0_af2pred_0001_af2pred_1 (protein)
chain: SSSSIELIRFADEVVLRLAEEYKLSDEDAQYLAEVAIELIRRGYSEEEIEEILQEEAEKLSSSSS
B15: il2ra_site2_2erj_sap_25_mot_e3be008b04150b5953e9f850c9479793_0001_000000253_0001_15_29_H_._HHH_b1_01649_af2_0001_0001400018_0000001_0_0001 (protein)
chain: SSSSDELRRLYELAVLLAHLLARGDREEAEEVLKEFEELAEELDSRNAEELVERVEKALDSSSSS
B16: il2ra_site2_3nfp_sap_25_mot_HHH_b1_04264_000000089_0001_1_18_H_._HHH_b1_05500_af2_0002_0000100003_0000001_0_0001 (protein)
chain: SVEEVLKELKRSGDPRLQELAEEVEELLRRGIPPEEIIEKLAREAYEENDHDVFAVANSLMKLWA
B17: il2ra_site2_2erj_normal_mot_HHH_b2_02572_000000008_0001_42_59_H_._HHH_b2_06294_0001_0000100005_0000001_0 (protein)
chain: SSSSTEEWEETAKILLRIQEAFEKGNPEEAEELIERLEQELRELGNEELLRYLEYLRRDLSSSSS
B18: il2ra_site1_3nfp_sap_18_mot_HHH_b2_02066_af2_000000034_0001_1_16_H_._HHH_b2_06949_0001_0000600054_0000001_0_0001_af2pred_0001_af2pred (protein)
chain: SSSSSDEERKRALELLFRAAHVSDPEEVKRLLEEALELAEEANNEVTQRRIEIDLRILERSSSSS

target: il2ra, P01589; experiment: yeast display titration

Apparent Kd, inactive:
B1 no binding seen
B2 no binding seen
B3 no binding seen
B4 no binding seen
B5 no binding seen
B6 no binding seen
B7 no binding seen
B8 no binding seen
B9 no binding seen
B10 no binding seen
B11 no binding seen
B12 no binding seen
B13 no binding seen
B14 no binding seen
B15 no binding seen
B16 no binding seen
B17 no binding seen
B18 no binding seen

Reprinted at random: 2 records from the list.
Apparent Kd, inactive:
B18 no binding seen
B14 no binding seen

Reference: publication PMC10163288
